No constants are given. Whether binding was seen depends on the method and setting. Binding seen in cells or lysates may run through a third protein. Some results given as binding are weak or reduced against the parent protein; the word gives no strength. For some assays here: Where a sequence is shown, tags or fusion partners need not be part of it.

By UniProt entry, the sequences of proteins in these tests, tags left out.
UniProt Q86UL8: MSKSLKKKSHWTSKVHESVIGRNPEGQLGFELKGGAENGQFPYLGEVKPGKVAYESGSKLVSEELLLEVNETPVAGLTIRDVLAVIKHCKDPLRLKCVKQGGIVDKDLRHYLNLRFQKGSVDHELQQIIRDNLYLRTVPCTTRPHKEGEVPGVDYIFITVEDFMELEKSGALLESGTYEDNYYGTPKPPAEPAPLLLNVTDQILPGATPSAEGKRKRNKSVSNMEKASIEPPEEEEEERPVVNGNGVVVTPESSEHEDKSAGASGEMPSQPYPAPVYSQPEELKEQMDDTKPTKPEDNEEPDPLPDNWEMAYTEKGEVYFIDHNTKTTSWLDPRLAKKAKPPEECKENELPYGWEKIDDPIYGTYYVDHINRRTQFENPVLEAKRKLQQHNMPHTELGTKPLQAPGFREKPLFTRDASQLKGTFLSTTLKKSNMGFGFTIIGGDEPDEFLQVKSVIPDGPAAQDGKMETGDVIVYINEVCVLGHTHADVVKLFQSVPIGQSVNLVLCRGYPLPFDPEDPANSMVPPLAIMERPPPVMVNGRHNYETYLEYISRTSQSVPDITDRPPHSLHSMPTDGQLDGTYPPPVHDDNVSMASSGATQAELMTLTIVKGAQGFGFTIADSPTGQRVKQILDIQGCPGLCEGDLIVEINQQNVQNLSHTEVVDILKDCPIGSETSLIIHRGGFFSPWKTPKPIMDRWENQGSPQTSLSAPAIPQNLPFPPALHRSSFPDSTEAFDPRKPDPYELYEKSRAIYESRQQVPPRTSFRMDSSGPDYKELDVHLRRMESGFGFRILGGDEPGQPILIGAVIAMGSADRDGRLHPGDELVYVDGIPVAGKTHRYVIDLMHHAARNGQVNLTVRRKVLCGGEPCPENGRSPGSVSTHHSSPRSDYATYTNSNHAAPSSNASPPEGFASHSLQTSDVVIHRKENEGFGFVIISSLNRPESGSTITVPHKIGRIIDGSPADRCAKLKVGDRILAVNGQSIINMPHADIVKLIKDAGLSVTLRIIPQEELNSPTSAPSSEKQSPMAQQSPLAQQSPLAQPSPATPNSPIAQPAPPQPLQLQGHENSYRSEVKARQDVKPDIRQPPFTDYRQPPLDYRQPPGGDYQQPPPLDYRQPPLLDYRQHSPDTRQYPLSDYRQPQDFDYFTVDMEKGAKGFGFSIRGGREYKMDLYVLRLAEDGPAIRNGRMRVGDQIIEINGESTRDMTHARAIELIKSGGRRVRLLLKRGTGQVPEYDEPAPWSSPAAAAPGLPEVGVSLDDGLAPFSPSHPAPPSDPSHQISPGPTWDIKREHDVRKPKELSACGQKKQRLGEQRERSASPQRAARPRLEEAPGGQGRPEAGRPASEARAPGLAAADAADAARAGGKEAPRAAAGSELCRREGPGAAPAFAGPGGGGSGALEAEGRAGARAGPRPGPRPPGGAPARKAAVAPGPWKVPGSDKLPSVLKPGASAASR
UniProt Q13887: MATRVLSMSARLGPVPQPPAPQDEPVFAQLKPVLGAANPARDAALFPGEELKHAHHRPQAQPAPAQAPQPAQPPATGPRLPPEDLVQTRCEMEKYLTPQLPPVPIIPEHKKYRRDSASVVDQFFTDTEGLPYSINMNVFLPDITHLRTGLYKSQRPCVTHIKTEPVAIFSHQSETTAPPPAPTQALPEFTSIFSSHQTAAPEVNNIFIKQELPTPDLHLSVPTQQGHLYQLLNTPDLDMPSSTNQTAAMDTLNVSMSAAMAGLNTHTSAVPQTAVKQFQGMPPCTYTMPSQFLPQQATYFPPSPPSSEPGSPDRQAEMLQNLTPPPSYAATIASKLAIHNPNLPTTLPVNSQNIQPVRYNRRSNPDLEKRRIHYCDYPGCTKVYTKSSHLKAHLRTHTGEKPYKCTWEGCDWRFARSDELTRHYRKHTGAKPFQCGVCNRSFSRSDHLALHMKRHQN

In one assay the target is T1, GFP-fused CLDN6 (UniProt P56747).
T1 sequence: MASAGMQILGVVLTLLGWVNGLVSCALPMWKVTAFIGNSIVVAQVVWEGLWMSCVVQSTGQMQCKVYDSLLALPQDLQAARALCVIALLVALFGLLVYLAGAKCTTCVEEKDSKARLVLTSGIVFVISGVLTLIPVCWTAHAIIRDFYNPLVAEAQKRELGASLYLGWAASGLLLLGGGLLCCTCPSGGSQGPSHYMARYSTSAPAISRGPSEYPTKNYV
Put plainly: co-IP; MDA-MB-231/CLDN6 cells and MDA-MB-231/CLDN6^δPBM cells.

Assay [1] concerns the target MAGI2 (human (endogenous in MDA-MB-231)) (UniProt Q86UL8). Described as above.

Turning to MAGI2 (from UniProt Q86UL8 1-1455), in the assay with GFP-fused CLDN6, the binding entry is “binds”.

With KLF5 (from UniProt Q13887 1-457), the binding result in assay [1] is “binds”.
